According to PubChem BioAssay AID1487 (National Center for Advancing Translational Sciences (NCATS), 2009):
The list shows a part of the results. Further columns of the screen follow, without active or inactive calls. Compounds called inactive in the main read-out are mostly missing here. Words in brackets tell the shape of the fitted curve; partial curves, single points and poor fits give uncertain potencies.

Experiment: qHTS Assay for Modulators of Lamin A Splicing
Settings: HeLa LMNA splicing GFP/RFP minigene ratio, 48 h
Procedure, shortened: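 S3 HeLa cells stably expressing lamin A-EGFP splicing minigene plus DsRed2, 600 cells/well, 48 h compound exposure at 37C. Laser-scanning cytometry; analysed as GFP (500-530 nm)/RFP (575-640 nm) total intensity ratio; 0.5% DMSO vehicle.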

[1] = measured here: GFP splicing reporter channel
[2] = measured here: RFP viability control channel

| Structure (SMILES) | AC50 [1] | AC50 [2] |
| --- | --- | --- |
| COc1ccc([N+](=O)[O-])cc1NC(=S)NC(NC(=O)Cc1ccc(OC)c(OC)c1)C(Cl)(Cl)Cl (stereo unspecified) | 12600 nM [falling, partial curve] | 14100 nM [falling, partial curve] |
| COc1ccc(C2C(C(=O)/C=C/c3ccco3)=C(O)C(=O)N2CCN2CCOCC2)cc1OC (stereo unspecified) | 794 nM [rising, full curve] | 631 nM [rising, single point] |
| CN1c2ccccc2C(C)(C)C12CC(c1ccc(Cl)c(S(=O)(=O)N3CCCC3)c1)=NO2 (stereo unspecified) |  | 1780 nM [rising, partial curve] |
| Cc1ccc(S(=O)(=O)Nc2cc(=O)[nH]c(SCc3ccc(Cl)cc3)n2)cc1 |  | 17800 nM [rising, single point] |
| COc1cc(NC(=O)Cn2ncc3c([nH]c4ccc(C)cc43)c2=O)cc(OC)c1OC | 3.16 nM [falling, full curve, poor fit] | 3.16 nM [falling, full curve] |
| CC(C)(C)NCC(=O)N/N=C/c1ccc(OCc2ccccc2)cc1 | 1580 nM [falling, full curve] |  |
| COc1ccc(NS(=O)(=O)c2cc(NC(=O)c3cnccn3)ccc2OC)cc1Br |  | 31600 nM [rising, single point] |
| CC(=O)C(C(C)=O)c1c(Cl)c(O)c(O)c2c(C(=O)c3ccccc3)coc12 | 2510 nM [falling, single point] | 35500 nM [falling, single point] |
| COc1cc(C(=S)N2CCCC2)cc(Cl)c1OCC(=O)Nc1ccc(C)cc1C |  | 20000 nM [rising, single point] |
| NNC(=O)c1cccc(COc2ccc3c(c2)CCC3)c1 |  | 1000 nM [falling, full curve, poor fit] |
| CCCCC[C@H](O)/C=C/[C@@H]1[C@@H](CCCCCCC(=O)O)[C@@H](O)C[C@H]1O | 2240 nM [rising, partial curve, poor fit] |  |
| COc1ccc(C2Nc3cccc4cccc(c34)N2)cc1 | 1410 nM [falling, full curve] |  |
| O=C(O)c1ccc(Cl)c(N2C(=O)Nc3ccccc3N2O)c1 | 35500 nM [falling, single point] |  |
| O=C(c1ccc(COc2ccccc2Cl)o1)N1CCCC1 | 12600 nM [rising, single point] | 20000 nM [rising, partial curve, poor fit] |
| Cc1cc2c(OCC(O)CNC3CCCCC3)cccc2[nH]1 (stereo unspecified) | 398 nM [rising, full curve] | 31.6 nM [rising, full curve, poor fit] |
